Measurements taken from PMC2235829.
These are yes or no findings as the source states them, for the method shown. Some binding calls cover weakened binding; strength is not graded here.

Amino acid sequences for entries named in this document (tags omitted). A change or cut given only in a name is not applied to a line headed by its entry. Residues count along the entry.
UniProt P11276, residues 33-2477: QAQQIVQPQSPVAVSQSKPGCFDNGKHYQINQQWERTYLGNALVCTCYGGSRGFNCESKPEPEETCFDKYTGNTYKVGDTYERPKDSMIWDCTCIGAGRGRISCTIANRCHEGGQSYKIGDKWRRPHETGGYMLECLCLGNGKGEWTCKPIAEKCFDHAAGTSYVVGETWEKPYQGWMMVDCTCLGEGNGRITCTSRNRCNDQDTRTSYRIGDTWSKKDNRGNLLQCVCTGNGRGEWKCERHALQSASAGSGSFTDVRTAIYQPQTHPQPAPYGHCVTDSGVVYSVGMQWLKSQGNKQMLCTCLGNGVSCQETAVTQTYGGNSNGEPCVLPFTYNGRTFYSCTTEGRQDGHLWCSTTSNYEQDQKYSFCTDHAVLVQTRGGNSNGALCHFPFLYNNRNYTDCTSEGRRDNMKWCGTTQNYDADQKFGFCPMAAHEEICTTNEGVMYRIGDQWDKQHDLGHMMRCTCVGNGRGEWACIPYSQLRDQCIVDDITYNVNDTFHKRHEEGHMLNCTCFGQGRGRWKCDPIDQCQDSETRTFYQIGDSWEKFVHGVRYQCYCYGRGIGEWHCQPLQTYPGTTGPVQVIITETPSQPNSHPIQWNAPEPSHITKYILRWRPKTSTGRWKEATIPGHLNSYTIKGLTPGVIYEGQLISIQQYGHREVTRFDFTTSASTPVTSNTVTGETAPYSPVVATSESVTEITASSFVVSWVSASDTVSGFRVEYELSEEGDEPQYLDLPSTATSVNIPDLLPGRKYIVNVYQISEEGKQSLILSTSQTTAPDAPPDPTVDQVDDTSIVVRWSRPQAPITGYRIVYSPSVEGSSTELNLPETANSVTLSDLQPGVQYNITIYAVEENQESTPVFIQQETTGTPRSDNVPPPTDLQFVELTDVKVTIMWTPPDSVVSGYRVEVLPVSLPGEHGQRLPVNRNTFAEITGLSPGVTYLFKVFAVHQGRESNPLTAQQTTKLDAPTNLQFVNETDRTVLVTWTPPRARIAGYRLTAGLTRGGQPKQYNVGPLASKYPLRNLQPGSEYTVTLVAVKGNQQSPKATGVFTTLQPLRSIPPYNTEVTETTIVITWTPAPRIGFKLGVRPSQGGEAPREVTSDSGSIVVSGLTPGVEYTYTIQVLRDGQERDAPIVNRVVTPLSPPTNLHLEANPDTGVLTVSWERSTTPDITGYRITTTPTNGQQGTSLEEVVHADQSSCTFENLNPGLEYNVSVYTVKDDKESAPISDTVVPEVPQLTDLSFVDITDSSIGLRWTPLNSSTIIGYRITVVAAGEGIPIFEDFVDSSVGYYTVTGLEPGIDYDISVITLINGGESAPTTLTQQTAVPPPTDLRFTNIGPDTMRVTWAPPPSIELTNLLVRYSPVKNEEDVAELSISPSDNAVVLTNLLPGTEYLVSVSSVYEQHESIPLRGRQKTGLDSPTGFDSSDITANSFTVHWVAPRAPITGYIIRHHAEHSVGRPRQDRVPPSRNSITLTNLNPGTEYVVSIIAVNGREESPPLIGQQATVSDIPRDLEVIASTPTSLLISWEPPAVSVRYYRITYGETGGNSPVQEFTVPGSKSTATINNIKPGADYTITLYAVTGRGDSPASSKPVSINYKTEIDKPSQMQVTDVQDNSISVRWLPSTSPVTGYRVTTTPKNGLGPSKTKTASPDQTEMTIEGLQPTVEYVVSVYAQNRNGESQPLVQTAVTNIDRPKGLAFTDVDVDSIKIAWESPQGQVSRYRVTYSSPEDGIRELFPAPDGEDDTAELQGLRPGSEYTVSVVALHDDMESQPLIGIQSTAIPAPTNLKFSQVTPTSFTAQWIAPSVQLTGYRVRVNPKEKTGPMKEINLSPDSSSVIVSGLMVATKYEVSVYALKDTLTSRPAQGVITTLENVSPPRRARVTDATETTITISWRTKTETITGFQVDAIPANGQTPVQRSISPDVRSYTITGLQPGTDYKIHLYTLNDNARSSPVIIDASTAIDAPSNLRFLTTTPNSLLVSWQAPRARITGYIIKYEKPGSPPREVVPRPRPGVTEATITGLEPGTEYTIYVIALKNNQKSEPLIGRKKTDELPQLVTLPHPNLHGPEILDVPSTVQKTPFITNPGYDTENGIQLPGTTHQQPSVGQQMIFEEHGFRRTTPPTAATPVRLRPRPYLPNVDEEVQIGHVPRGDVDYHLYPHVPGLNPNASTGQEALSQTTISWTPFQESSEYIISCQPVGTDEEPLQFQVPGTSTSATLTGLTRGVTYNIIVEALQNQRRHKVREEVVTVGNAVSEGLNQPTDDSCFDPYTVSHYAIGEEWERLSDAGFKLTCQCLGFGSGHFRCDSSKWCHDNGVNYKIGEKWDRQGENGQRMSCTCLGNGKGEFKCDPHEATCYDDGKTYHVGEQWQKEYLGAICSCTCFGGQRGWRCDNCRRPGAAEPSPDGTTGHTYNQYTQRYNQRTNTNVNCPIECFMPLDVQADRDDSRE
UniProt P11688: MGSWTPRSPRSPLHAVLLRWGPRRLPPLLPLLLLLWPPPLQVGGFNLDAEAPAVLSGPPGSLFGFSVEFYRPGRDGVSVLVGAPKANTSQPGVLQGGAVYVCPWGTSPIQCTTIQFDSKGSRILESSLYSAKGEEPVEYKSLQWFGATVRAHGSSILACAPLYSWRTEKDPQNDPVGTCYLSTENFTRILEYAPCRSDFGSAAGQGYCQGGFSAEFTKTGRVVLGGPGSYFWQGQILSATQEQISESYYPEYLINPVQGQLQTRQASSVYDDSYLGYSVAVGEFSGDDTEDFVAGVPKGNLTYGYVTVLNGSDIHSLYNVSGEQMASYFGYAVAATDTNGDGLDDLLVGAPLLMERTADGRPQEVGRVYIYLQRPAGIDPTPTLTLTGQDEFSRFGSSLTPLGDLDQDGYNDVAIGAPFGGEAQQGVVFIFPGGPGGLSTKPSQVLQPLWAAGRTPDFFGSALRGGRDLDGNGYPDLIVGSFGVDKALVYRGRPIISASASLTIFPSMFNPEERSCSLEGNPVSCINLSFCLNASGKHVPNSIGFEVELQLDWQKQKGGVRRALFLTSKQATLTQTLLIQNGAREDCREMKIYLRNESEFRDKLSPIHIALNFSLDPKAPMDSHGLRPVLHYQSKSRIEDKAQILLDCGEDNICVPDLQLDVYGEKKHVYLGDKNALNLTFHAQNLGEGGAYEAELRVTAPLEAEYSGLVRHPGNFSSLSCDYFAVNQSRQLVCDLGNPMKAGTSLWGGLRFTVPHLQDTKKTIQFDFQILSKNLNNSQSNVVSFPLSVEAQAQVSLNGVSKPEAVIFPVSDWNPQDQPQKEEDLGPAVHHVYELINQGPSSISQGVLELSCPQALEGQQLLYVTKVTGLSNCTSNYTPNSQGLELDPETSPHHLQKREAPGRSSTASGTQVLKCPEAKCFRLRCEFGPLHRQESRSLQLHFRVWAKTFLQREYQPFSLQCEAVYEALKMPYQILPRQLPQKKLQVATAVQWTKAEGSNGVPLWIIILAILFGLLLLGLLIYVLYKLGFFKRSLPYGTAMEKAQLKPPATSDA

Biological target: cellular mouse fibronectin (mouse) (UniProt P11276)
Assay: ELISA; cellular mouse fibronectin (250 ng) coated on the plate overnight at 4°C; α5β1-Fc in solution with various concentrations of antibodies, 1 hr at room temperature; detected with goat anti-human IgG Fc-HRP; both purified

## mouse integrin α5β1-Fc fusion protein (from UniProt P11688 45-999; P09055 21-728)
  binding: binds
